Experimental data reported in patent US20260285903A1, “SYNTHESIZED BIOLOGICALLY ACTIVE COMPOUNDS AND METHODS OF MAKING AND USING” (Georgia State University Research Foundation, Inc., priority 2023, published 2026).

What follows are compounds tested on NF-κB signaling pathway (assay: NF-κB-dependent luciferase activity in NF-κB/293/GFP-Luc cells treated with TNF-α). Details: rank among the 19 MLY compounds.
Type: cell-based
Method: First, the anti-inflammatory activity of MLY compounds on the NF-κB signaling pathway was examined using the NF-xB/293/GFP-LucTnl cell line (System Biosciences). This cell line is specifically designed for use in quantitatively monitoring (by luciferase intensity) transcriptional activation related to the NF-κB signal transduction pathway in vitro. Treatment of NF-κB/293/GFP-Luc™ cells with 10 ng/ml TNF-α for 18 hours induced strong activation of the NF-κB signal transduction pathway (FIGS. 8A and 8B). […] MLY2 and MLY8 induced a strongest 90% reduction of NF-κB activation the anti-inflammatory effect of MLY 2 and 8 was dose-related (FIG. 9). The dose to reduce the NF-κB activation by 50% was […] for M13, 5 μM for MLY2 and 11 μM for MLY8 (FIG. 9).

**Q.** How did the “Order of Activity” value turn out when `CCCCCC(CC(=O)CCc1ccc(O)c(OC)c1)SC[C@H](NC(=O)[C@@H](N)CC(=O)O)C(=O)N[C@@H](CC(C)C)C(=O)O` (stereo partly drawn) [MLY-7, Asp(alpha)-Cys(6-shogaol)-Leu] was run?
**A.** (5)

**Q.** For `CCCCCC(CC(=O)CCc1ccc(O)c(OC)c1)SC[C@H](NC(=O)[C@@H](N)CC(=O)O)C(=O)N[C@@H](Cc1ccccc1)C(=O)O` (stereo partly drawn) [MLY-6, Asp(alpha)-Cys(6-shogaol)-Phe], which “Order of Activity” value is on record?
**A.** (9)

**Q.** How did the “Order of Activity” value turn out when `CCCCCC(CC(=O)CCc1ccc(O)c(OC)c1)SC[C@H](NC(=O)[C@@H](N)CCC(=O)O)C(=O)N[C@@H](Cc1c[nH]c2ccccc12)C(=O)O` (stereo partly drawn) [MLY-4, Glu(alpha)-Cys(6-shogaol)-Trp] was run?
**A.** (16)

**Q.** With `CCCCCC(CC(=O)CCc1ccc(O)c(OC)c1)SC[C@H](NC(=O)[C@@H](N)CCC(=O)O)C(=O)N1CCC[C@H]1C(=O)O` (stereo partly drawn) [MLY-3, Glu(alpha)-Cys(6-shogaol)-Pro] as the compound, how does the “Order of Activity” value read?
**A.** (11)

**Q.** How did the “Order of Activity” value turn out when `CCCCCC(CC(=O)CCc1ccc(O)c(OC)c1)SC[C@H](NC(=O)[C@@H](N)CC(=O)O)C(=O)N[C@H](C(=O)O)C(C)C` (stereo partly drawn) [MLY-10, Asp(alpha)-Cys(6-shogaol)-Val] was run?
**A.** (12)

**Q.** How did the “Order of Activity” value turn out when `CCCCCC(CC(=O)CCc1ccc(O)c(OC)c1)SC[C@H](NC(=O)[C@@H](N)CCC(=O)O)C(=O)N[C@@H](Cc1ccc(O)cc1)C(=O)O` (stereo partly drawn) [MLY-5, Glu(alpha)-Cys(6-shogaol)-Tyr] was run?
**A.** (14)

**Q.** For `CCCCCC(CC(=O)CCc1ccc(O)c(OC)c1)SC[C@H](NC(=O)[C@@H](N)CC(=O)O)C(=O)N[C@@H](Cc1ccc(O)cc1)C(=O)O` (stereo partly drawn) [MLY-12, Asp(alpha)-Cys(6-shogaol)-Tyr], which “Order of Activity” value is on record?
**A.** (7)

**Q.** How did the “Order of Activity” value turn out when `CCCCCC(CC(=O)CCc1ccc(O)c(OC)c1)SC[C@H](NC(=O)[C@@H](N)CCC(=O)O)C(=O)N[C@@H](CCSC)C(=O)O` (stereo partly drawn) [MLY-13, Glu(alpha)-Cys(6-shogaol)-Met] was run?
**A.** (10)

**Q.** Which “Order of Activity” value does the source give for `CCCCCC(CC(=O)CCc1ccc(O)c(OC)c1)SC[C@H](NC(=O)[C@@H](N)CC(=O)O)C(=O)N[C@@H](CCSC)C(=O)O` (stereo partly drawn) [MLY-8, Asp(alpha)-Cys(6-shogaol)-Met] here?
**A.** (2)

**Q.** With `CCCCCC(CC(=O)CCc1ccc(O)c(OC)c1)SC[C@H](NC(=O)[C@@H](N)CCC(=O)O)C(=O)N[C@@H](Cc1ccccc1)C(=O)O` (stereo partly drawn) [MLY-15, Glu(alpha)-Cys(6-shogaol)-Phe] as the compound, how does the “Order of Activity” value read?
**A.** (8)

**Q.** How did the “Order of Activity” value turn out when `CCCCCC(CC(=O)CCc1ccc(O)c(OC)c1)SC[C@H](NC(=O)[C@@H](N)CCC(=O)O)C(=O)N[C@H](C(=O)O)[C@@H](C)CC` (stereo partly drawn) [MLY-16, Glu(alpha)-Cys(6-shogaol)-Ile] was run?
**A.** (15)

**Q.** With `CCCCCC(CC(=O)CCc1ccc(O)c(OC)c1)SC[C@H](NC(=O)[C@@H](N)CC(=O)O)C(=O)N[C@@H](C)C(=O)O` (stereo partly drawn) [MLY-19, Asp(alpha)-Cys(6-shogaol)-Ala] as the compound, how does the “Order of Activity” value read?
**A.** (13)

**Q.** With `CCCCCC(CC(=O)CCc1ccc(O)c(OC)c1)SC[C@H](NC(=O)[C@@H](N)CC(=O)O)C(=O)N[C@@H](Cc1c[nH]c2ccccc12)C(=O)O` (stereo partly drawn) [MLY-11, Asp(alpha)-Cys(6-shogaol)-Trp] as the compound, how does the “Order of Activity” value read?
**A.** (3)

**Q.** `CCCCCC(CC(=O)CCc1ccc(O)c(OC)c1)SC[C@H](NC(=O)[C@@H](N)CCC(=O)O)C(=O)N[C@H](C(=O)O)C(C)C` (stereo partly drawn) [MLY-17, Glu(alpha)-Cys(6-shogaol)-Val] was tested. Which “Order of Activity” value did it give?
**A.** (6)

**Q.** For `CCCCCC(CC(=O)CCc1ccc(O)c(OC)c1)SC[C@H](NC(=O)[C@@H](N)CC(=O)O)C(=O)NCC(=O)O` (stereo partly drawn) [MLY-18, Asp(alpha)-Cys(6-shogaol)-Gly], which “Order of Activity” value is on record?
**A.** (19)

**Q.** For `CCCCCC(CC(=O)CCc1ccc(O)c(OC)c1)SC[C@H](NC(=O)[C@@H](N)CCC(=O)O)C(=O)N[C@@H](CC(C)C)C(=O)O` (stereo partly drawn) [MLY-2, Glu(alpha)-Cys(6-shogaol)-Leu], which “Order of Activity” value is on record?
**A.** (1)

**Q.** With `CCCCCC(CC(=O)CCc1ccc(O)c(OC)c1)SC[C@H](NC(=O)[C@@H](N)CC(=O)O)C(=O)N[C@H](C(=O)O)[C@@H](C)CC` (stereo partly drawn) [MLY-14, Asp(alpha)-Cys(6-shogaol)-Ile] as the compound, how does the “Order of Activity” value read?
**A.** (17)

**Q.** `CCCCCC(CC(=O)CCc1ccc(O)c(OC)c1)SC[C@H](NC(=O)[C@@H](N)CC(=O)O)C(=O)N1CCC[C@H]1C(=O)O` (stereo partly drawn) [MLY-9, Asp(alpha)-Cys(6-shogaol)-Pro] was tested. Which “Order of Activity” value did it give?
**A.** (18)
